According to PMC4464288:
These are yes or no findings as the source states them, for the method shown. In cells and extracts the contact can be indirect. Some results given as binding are weak or reduced against the parent protein; the word gives no strength. For some assays here: Tags and fused reporters may be left off the sequences shown. Values belong to the molecule of their own block, whether it stands above or below them.

Chains of the proteins cited; added tags and fusions are not shown.
UniProt P38432: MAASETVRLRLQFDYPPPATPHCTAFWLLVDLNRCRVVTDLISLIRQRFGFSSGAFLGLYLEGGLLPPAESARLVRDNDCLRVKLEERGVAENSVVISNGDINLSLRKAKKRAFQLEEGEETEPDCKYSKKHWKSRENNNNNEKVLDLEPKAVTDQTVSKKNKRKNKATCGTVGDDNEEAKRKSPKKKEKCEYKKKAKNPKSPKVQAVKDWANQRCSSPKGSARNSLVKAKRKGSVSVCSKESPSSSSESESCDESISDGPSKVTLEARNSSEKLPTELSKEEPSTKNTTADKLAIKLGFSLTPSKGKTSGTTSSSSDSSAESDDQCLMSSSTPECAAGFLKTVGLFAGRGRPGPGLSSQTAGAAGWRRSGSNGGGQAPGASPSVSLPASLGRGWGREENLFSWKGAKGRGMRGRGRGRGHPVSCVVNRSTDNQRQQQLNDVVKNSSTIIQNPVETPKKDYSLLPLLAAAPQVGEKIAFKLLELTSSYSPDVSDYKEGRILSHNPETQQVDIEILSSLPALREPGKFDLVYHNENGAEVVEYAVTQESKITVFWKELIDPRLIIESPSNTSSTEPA
UniProt P23804: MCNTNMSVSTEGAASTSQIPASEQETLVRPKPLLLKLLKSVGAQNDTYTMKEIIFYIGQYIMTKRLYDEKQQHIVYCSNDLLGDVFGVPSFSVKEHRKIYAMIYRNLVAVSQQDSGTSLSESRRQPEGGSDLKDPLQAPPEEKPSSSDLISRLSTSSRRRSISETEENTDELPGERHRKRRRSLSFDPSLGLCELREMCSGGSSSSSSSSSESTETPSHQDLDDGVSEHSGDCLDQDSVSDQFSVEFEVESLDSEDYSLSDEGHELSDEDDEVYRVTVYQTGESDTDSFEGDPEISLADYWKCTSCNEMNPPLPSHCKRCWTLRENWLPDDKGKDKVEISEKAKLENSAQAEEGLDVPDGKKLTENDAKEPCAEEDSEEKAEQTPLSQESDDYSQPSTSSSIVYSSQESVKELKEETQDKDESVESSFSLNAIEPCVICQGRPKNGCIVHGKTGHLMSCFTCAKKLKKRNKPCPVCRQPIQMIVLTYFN

Tests used:
[1] = target: coilin-myc (pCMV6-coilin-myc-DKK), transfected (human) (UniProt P38432); assay: co-IP; immunoprecipitation of transfected proteins: 1-2 mg total lysate with specific antibodies, then Gamma-Bind G Plus Sepharose overnight at 4 °C; lysis buffer 1% Triton X100, 200 mM NaCl, 5 mM EDTA, 50 mM Tris pH 8.0
[2] = target: coilin, endogenous human (human (endogenous in HeLa)) (UniProt P38432); assay: co-IP; reciprocal immunoprecipitation of endogenous proteins from HeLa cell extract, non-synchronized cells; lysis buffer 1% Triton X100, 200 mM NaCl, 5 mM EDTA, 50 mM Tris pH 8.0; Gamma-Bind G Plus Sepharose, 4 °C
[3] = target: coilin-myc (pCMV6-coilin-myc-DKK), transfected (human) (UniProt P38432); assay: pull-down; GST pull-down of transfected proteins: 1 mg total cell extract incubated with Glutathione-Sepharose beads for 6 hours, washed with lysis buffer
[4] = target: coilin-myc (pCMV6-coilin-myc-DKK), transfected (human) (UniProt P38432); assay: co-IP; immunoprecipitation of transfected proteins: 1-2 mg total lysate with specific antibodies, then Gamma-Bind G Plus Sepharose overnight at 4 °C; lysis buffer 1% Triton X100, 200 mM NaCl, 5 mM EDTA, 50 mM Tris pH 8.0; remark: listed apart in the source

Molecule: Mdm2 (pCOC-Mdm2-X2), transfected (from UniProt P23804 1-489) (enzyme)
binding [1]: binds

B3: HA-RNF8, transfected (enzyme, UniProt O76064 1-485)
chain: MGEPGFFVTGDRAGGRSWCLRRVGMSAGWLLLEDGCEVTVGRGFGVTYQLVSKICPLMISRNHCVLKQNPEGQWTIMDNKSLNGVWLNRARLEPLRVYSIHQGDYIQLGVPLENKENAEYEYEVTEEDWETIYPCLSPKNDQMIEKNKELRTKRKFSLDELAGPGAEGPSNLKSKINKVSCESGQPVKSQGKGEVASTPSDNLDPKLTALEPSKTTGAPIYPGFPKVTEVHHEQKASNSSASQRSLQMFKVTMSRILRLKIQMQEKHEAVMNVKKQTQKGNSKKVVQMEQELQDLQSQLCAEQAQQQARVEQLEKTFQEEEQHLQGLEIAQGEKDLKQQLAQALQEHWALMEELNRSKKDFEAIIQAKNKELEQTKEEKEKMQAQKEEVLSHMNDVLENELQCIICSEYFIEAVTLNCAHSFCSYCINEWMKRKIECPICRKDIKSKTYSLVLDNCINKMVNNLSSEVKERRIVLIRERKAKRLF
binding [4]: no binding

More lines, now with the values ahead:

binding [2]: binds
B1: VRK1 (vaccinia-related kinase 1), endogenous human (enzyme, UniProt Q99986 1-396)
chain: MPRVKAAQAGRQSSAKRHLAEQFAVGEIITDMAKKEWKVGLPIGQGGFGCIYLADMNSSESVGSDAPCVVKVEPSDNGPLFTELKFYQRAAKPEQIQKWIRTRKLKYLGVPKYWGSGLHDKNGKSYRFMIMDRFGSDLQKIYEANAKRFSRKTVLQLSLRILDILEYIHEHEYVHGDIKASNLLLNYKNPDQVYLVDYGLAYRYCPEGVHKEYKEDPKRCHDGTIEFTSIDAHNGVAPSRRGDLEILGYCMIQWLTGHLPWEDNLKDPKYVRDSKIRYRENIASLMDKCFPEKNKPGEIAKYMETVKLLDYTEKPLYENLRDILLQGLKAIGSKDDGKLDLSVVENGGLKAKTITKKRKKEIEESKEPGVEDTEWSNTQTEEAIQTRSRTRKRVQK

binding [3]: binds
binding [4]: binds
B2: VRK1, transfected (enzyme, UniProt Q99986 1-396)
chain: MPRVKAAQAGRQSSAKRHLAEQFAVGEIITDMAKKEWKVGLPIGQGGFGCIYLADMNSSESVGSDAPCVVKVEPSDNGPLFTELKFYQRAAKPEQIQKWIRTRKLKYLGVPKYWGSGLHDKNGKSYRFMIMDRFGSDLQKIYEANAKRFSRKTVLQLSLRILDILEYIHEHEYVHGDIKASNLLLNYKNPDQVYLVDYGLAYRYCPEGVHKEYKEDPKRCHDGTIEFTSIDAHNGVAPSRRGDLEILGYCMIQWLTGHLPWEDNLKDPKYVRDSKIRYRENIASLMDKCFPEKNKPGEIAKYMETVKLLDYTEKPLYENLRDILLQGLKAIGSKDDGKLDLSVVENGGLKAKTITKKRKKEIEESKEPGVEDTEWSNTQTEEAIQTRSRTRKRVQK
